The results in this text go back to PMC6895255.

Amino acid sequences for entries named in this document (tags omitted).
UniProt O15054: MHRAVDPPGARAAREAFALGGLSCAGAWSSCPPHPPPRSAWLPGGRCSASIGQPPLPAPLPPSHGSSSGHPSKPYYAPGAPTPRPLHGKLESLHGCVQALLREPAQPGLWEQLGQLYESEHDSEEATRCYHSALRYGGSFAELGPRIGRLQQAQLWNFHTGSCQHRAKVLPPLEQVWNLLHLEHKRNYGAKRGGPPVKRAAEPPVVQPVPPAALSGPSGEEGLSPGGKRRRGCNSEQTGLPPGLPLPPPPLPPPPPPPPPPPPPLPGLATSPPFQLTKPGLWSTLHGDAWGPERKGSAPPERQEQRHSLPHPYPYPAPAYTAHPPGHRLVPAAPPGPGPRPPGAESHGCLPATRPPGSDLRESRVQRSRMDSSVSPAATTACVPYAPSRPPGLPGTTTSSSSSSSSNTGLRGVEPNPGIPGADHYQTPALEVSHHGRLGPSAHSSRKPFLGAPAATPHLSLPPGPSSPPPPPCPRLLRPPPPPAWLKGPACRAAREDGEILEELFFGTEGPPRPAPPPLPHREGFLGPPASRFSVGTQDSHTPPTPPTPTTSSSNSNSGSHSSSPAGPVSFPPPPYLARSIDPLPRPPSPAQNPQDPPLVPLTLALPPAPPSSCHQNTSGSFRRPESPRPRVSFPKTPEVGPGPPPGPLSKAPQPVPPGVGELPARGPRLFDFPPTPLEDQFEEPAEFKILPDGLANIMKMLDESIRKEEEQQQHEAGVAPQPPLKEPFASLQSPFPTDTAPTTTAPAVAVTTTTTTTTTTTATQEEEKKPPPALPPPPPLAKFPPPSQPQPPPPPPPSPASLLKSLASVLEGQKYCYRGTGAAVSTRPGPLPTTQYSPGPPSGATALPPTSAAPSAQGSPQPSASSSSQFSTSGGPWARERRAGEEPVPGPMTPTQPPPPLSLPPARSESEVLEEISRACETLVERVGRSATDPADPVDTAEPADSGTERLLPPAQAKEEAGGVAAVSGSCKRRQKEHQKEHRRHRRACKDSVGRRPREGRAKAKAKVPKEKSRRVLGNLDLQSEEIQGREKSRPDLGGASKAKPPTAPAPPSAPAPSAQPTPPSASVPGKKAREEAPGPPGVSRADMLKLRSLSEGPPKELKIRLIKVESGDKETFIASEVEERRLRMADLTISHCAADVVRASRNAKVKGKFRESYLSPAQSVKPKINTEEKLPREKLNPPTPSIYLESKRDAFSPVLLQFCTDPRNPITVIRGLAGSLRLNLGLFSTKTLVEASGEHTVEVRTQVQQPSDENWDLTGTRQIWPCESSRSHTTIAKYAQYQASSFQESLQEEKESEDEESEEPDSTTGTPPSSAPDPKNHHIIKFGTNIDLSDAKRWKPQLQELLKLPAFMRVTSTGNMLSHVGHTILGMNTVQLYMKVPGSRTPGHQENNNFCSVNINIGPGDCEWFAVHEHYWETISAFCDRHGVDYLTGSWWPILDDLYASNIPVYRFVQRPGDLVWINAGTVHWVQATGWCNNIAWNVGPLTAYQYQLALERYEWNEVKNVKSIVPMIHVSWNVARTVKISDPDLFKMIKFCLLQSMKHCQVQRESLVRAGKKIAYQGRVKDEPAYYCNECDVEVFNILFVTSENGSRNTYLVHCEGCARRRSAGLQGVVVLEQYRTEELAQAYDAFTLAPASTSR
UniProt Q9NR30: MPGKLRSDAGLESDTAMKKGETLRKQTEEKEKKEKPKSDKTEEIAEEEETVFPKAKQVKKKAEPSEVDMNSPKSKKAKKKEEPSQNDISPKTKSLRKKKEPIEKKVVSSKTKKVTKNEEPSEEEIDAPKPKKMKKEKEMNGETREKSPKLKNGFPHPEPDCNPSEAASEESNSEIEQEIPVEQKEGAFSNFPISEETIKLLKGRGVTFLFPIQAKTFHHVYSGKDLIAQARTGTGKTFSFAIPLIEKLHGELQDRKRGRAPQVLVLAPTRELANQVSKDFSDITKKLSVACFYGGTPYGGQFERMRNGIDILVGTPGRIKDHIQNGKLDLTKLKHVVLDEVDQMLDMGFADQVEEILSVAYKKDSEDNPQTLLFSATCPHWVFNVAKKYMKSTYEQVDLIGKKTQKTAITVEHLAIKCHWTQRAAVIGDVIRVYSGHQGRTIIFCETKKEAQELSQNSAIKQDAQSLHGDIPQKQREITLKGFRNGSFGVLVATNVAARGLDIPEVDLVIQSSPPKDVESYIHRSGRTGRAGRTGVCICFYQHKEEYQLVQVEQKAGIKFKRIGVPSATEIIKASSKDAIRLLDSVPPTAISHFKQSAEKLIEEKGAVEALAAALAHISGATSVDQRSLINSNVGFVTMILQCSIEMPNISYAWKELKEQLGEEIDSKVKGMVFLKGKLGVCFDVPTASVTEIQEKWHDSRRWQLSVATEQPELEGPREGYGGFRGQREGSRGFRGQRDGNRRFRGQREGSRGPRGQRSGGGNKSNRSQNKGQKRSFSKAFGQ

No constants are given. Whether binding was seen depends on the method and setting. In cells and extracts the contact can be indirect. These calls come from enrichment with a bait or labelling near it, and not all partners need be listed.

In this experiment the target is HA-epitope tagged JMJD3 (UniProt O15054). Briefly: affinity purification with mass spectrometry; anti-HA antibody on magnetic beads, from 50 million HEK 293T cells transfected with HA-JMJD3 for 24 h, basal or LPS 100 ng/ml for 6 h; TNGT buffer (150 mM NaCl, 50 mM Tris-HCl pH 7.4, 1% glycerol, 0.1% Triton X100), overnight at 4°C; LC-MS/MS.

As to “DDX21 (from UniProt Q9NR30 1-783) (enzyme)”, the binding result is “binds”.
